Laboratory results taken from article PMC11781186.

Protein sequences, listed by entry. Tags and fused reporters are not part of them. Lines headed by an entry give the natural chain unless they say otherwise; changes in a name come on top.
UniProt P29317: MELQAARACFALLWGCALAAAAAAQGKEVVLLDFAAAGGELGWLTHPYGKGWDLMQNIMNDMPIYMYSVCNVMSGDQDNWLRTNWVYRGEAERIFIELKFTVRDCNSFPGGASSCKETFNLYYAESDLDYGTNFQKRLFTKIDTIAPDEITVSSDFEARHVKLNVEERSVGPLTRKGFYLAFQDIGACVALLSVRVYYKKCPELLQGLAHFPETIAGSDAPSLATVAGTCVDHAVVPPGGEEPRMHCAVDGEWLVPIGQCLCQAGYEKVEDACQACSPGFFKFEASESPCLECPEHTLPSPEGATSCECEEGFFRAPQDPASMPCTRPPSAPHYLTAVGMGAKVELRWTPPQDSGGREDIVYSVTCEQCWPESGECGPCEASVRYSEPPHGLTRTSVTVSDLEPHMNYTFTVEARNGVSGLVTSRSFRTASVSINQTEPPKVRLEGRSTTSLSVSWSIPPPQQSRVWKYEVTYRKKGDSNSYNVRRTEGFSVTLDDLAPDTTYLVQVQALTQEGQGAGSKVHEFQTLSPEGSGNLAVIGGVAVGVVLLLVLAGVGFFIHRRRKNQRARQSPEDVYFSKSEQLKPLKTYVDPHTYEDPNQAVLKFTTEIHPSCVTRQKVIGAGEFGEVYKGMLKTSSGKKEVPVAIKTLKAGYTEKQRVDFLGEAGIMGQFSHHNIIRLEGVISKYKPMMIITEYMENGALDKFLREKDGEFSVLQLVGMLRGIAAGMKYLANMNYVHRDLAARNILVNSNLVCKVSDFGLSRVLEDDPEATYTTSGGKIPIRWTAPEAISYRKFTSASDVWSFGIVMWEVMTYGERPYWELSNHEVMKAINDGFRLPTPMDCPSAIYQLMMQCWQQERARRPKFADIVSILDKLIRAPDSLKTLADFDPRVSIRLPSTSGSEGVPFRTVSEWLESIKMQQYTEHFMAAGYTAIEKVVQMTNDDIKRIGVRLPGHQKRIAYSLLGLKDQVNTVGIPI

B1: ZnF-UBP domain deletion (D1-283) USP5 (domain or fragment, UniProt P45974-2 284-835)
chain: LKMQKTDKTMTELEIDMNQRIGEWELIQESGVPLKPLFGPGYTGIRNLGNSCYLNSVVQVLFSIPDFQRKYVDKLEKIFQNAPTDPTQDFSTQVAKLGHGLLSGEYSKPVPESGDGERVPEQKEVQDGIAPRMFKALIGKGHPEFSTNRQQDAQEFFLHLINMVERNCRSSENPNEVFRFLVEEKIKCLATEKVKYTQRVDYIMQLPVPMDAALNKEELLEYEEKKRQAEEEKMALPELVRAQVPFSSCLEAYGAPEQVDDFWSTALQAKSVAVKTTRFASFPDYLVIQIKKFTFGLDWVPKKLDVSIEMPEELDISQLRGTGLQPGEEELPDIAPPLVTPDEPKAPMLDESVIIQLVEMGFPMDACRKAVYYTGNSGAEAAMNWVMSHMDDPDFANPLILPGSSGPGSTSAAADPPPEDCVTTIVSMGFSRDQALKALRATNNSLERAVDWIFSHIDDLDAEAAMDISEGRSAADSISESVPVGPKVRDGPGKYQLFAFISHMGTSTMCGHYVCHIKKEGRWVIYNDQKVCASEKPPKDLGYIYFYQRVAS
B2: USP5 USP domain (284-633) (domain or fragment, UniProt P45974-2 284-633)
chain: LKMQKTDKTMTELEIDMNQRIGEWELIQESGVPLKPLFGPGYTGIRNLGNSCYLNSVVQVLFSIPDFQRKYVDKLEKIFQNAPTDPTQDFSTQVAKLGHGLLSGEYSKPVPESGDGERVPEQKEVQDGIAPRMFKALIGKGHPEFSTNRQQDAQEFFLHLINMVERNCRSSENPNEVFRFLVEEKIKCLATEKVKYTQRVDYIMQLPVPMDAALNKEELLEYEEKKRQAEEEKMALPELVRAQVPFSSCLEAYGAPEQVDDFWSTALQAKSVAVKTTRFASFPDYLVIQIKKFTFGLDWVPKKLDVSIEMPEELDISQLRGTGLQPGEEELPDIAPPLVTPDEPKAPMLD
B3: USP5 UBA1 and UBA2 domain (634-835) (domain or fragment, UniProt P45974-2 634-835)
chain: ESVIIQLVEMGFPMDACRKAVYYTGNSGAEAAMNWVMSHMDDPDFANPLILPGSSGPGSTSAAADPPPEDCVTTIVSMGFSRDQALKALRATNNSLERAVDWIFSHIDDLDAEAAMDISEGRSAADSISESVPVGPKVRDGPGKYQLFAFISHMGTSTMCGHYVCHIKKEGRWVIYNDQKVCASEKPPKDLGYIYFYQRVAS

target: Myc-EphA2 (wild type) (UniProt P29317); experiment: co-IP; HEK293 cells co-transfected with USP5 and EphA2 expression plasmids (wild type or deletion mutants); whole cell lysates, Protein A/G-Sepharose 4B, overnight at 4°C, 5 washes with RIPA buffer, immunoblotting

Molecule | binding
B1 | no binding
B2 | no binding
B3 | no binding

target: Myc-EphA2 (wild type) (UniProt P29317); experiment: as above; remark: another data set of the same source

Molecule | binding
USP5 ZnF-UBP domain (1-283) (from UniProt P45974-2 1-283) (domain or fragment) | binds
UBA1 and UBA2 domain deletion (D633-835) USP5 (from UniProt P45974-2 1-632) (domain or fragment) | binds
Flag-USP5 (wild type) (from UniProt P45974-2 1-835) (enzyme) | binds

Results are given in words; binding and its absence hold for the method and conditions named. Binding seen in cells or lysates may run through a third protein. For part of these data: Binding can be weak; no strength is given.
